US20180320217A1, “METHODS FOR SAMPLING AND MEASURING ORAL LAVAGE PROTEINS” (The Procter & Gamble Company, priority 2017, published 2018)

B1: Vesicular integral-membrane protein VIP36 (protein, UniProt Q12907 45-356, looked up)
Vesicular integral-membrane …: DITDGNSEHLKREHSLIKPYQGVGSSSMPLWDFQGSTMLTSQYVRLTPDERSKEGSIWNHQPCFLKDWEMHVHFKVHGTGKKNLHGDGIALWYTRDRLVPGPVFGSKDNFHGLAIFLDTYPNDETTERVFPYISVMVNNGSLSYDHSKDGRWTELAGCTADFRNRDHDTFLAVRYSRGRLTVMTDLEDKNEWKNCIDITGVRLPTGYYFGASAGTGDLSDNHDIISMKLFQLMVEHTPDEESIDWTKIEPSVNFLKSPKDNVDDPTGNFRSGPLTGWRVFLLLLCALLGIVVCAVVGAVVFQKRQERNKRFY
B2: WNT1-inducible-signaling pathway protein 3 (protein, UniProt O95389 24-354, looked up)
Cellular communication …: TGPLDTTPEGRPGEVSDAPQRKQFCHWPCKCPQQKPRCPPGVSLVRDGCGCCKICAKQPGEICNEADLCDPHKGLYCDYSVDRPRYETGVCAYLVAVGCEFNQVHYHNGQVFQPNPLFSCLCVSGAIGCTPLFIPKLAGSHCSGAKGGKKSDQSNCSLEPLLQQLSTSYKTMPAYRNLPLIWKKKCLVQATKWTPCSRTCGMGISNRVTNENSNCEMRKEKRLCYIQPCDSNILKTIKIPKGKTCQPTFQLSKAEKFVFSGCSSTQSYKPTFCGICLDKRCCIPNKSKMITIQFDCPNEGSFKWKMLWITSCVCQRNCREPGDIFSELKIL
B3: Vascular endothelial growth factor D (protein, UniProt O43915 89-205, looked up)
Vascular endothelial growth …: FAATFYDIETLKVIDEEWQRTQCSPRETCVEVASELGKSTNTFFKPPCVNVFRCGGCCNEESLICMNTSTSYISKQLFEISVPLTSVPELVPVKVANHTGCKCLPTAPRHPYSIIRR
B4: ATP-dependent RNA helicase DDX19B (protein, UniProt Q9UMR2 2-479, looked up)
ATP-dependent RNA helicase …: ATDSWALAVDEQEAAAESLSNLHLKEEKIKPDTNGAVVKTNANAEKTDEEEKEDRAAQSLLNKLIRSNLVDNTNQVEVLQRDPNSPLYSVKSFEELRLKPQLLQGVYAMGFNRPSKIQENALPLMLAEPPQNLIAQSQSGTGKTAAFVLAMLSQVEPANKYPQCLCLSPTYELALQTGKVIEQMGKFYPELKLAYAVRGNKLERGQKISEQIVIGTPGTVLDWCSKLKFIDPKKIKVFVLDEADVMIATQGHQDQSIRIQRMLPRNCQMLLFSATFEDSVWKFAQKVVPDPNVIKLKREEETLDTIKQYYVLCSSRDEKFQALCNLYGAITIAQAMIFCHTRKTASWLAAELSKEGHQVALLSGEMMVEQRAAVIERFREGKEKVLVTTNVCARGIDVEQVSVVINFDLPVDKDGNPDNETYLHRIGRTGRFGKRGLAVNMVDSKHSMNILNRIQEHFNKKIERLDTDDLDEIEKIAN
B5: ATP synthase subunit O, mitochondrial (protein, UniProt P48047 24-213, looked up)
ATP synthase peripheral stalk …: FAKLVRPPVQVYGIEGRYATALYSAASKQNKLEQVEKELLRVAQILKEPKVAASVLNPYVKRSIKVKSLNDITAKERFSPLTTNLINLLAENGRLSNTQGVVSAFSTMMSVHRGEVPCTVTSASPLEEATLSELKTVLKSFLSQGQVLKLEAKTDPSILGGMIVRIGEKYVDMSVKTKIQKLGRAMREIV
B6: Tyrosine-protein kinase receptor TYRO3 (protein, UniProt Q06418 41-890, looked up)
Tyrosine-protein kinase …: AGLKLMGAPVKLTVSQGQPVKLNCSVEGMEEPDIQWVKDGAVVQNLDQLYIPVSEQHWIGFLSLKSVERSDAGRYWCQVEDGGETEISQPVWLTVEGVPFFTVEPKDLAVPPNAPFQLSCEAVGPPEPVTIVWWRGTTKIGGPAPSPSVLNVTGVTQSTMFSCEAHNLKGLASSRTATVHLQALPAAPFNITVTKLSSSNASVAWMPGADGRALLQSCTVQVTQAPGGWEVLAVVVPVPPFTCLLRDLVPATNYSLRVRCANALGPSPYADWVPFQTKGLAPASAPQNLHAIRTDSGLILEWEEVIPEAPLEGPLGPYKLSWVQDNGTQDELTVEGTRANLTGWDPQKDLIVRVCVSNAVGCGPWSQPLVVSSHDRAGQQGPPHSRTSWVPVVLGVLTALVTAAALALILLRKRRKETRFGQAFDSVMARGEPAVHFRAARSFNRERPERIEATLDSLGISDELKEKLEDVLIPEQQFTLGRMLGKGEFGSVREAQLKQEDGSFVKVAVKMLKADIIASSDIEEFLREAACMKEFDHPHVAKLVGVSLRSRAKGRLPIPMVILPFMKHGDLHAFLLASRIGENPFNLPLQTLIRFMVDIACGMEYLSSRNFIHRDLAARNCMLAEDMTVCVADFGLSRKIYSGDYYRQGCASKLPVKWLALESLADNLYTVQSDVWAFGVTMWEIMTRGQTPYAGIENAEIYNYLIGGNRLKQPPECMEDVYDLMYQCWSADPKQRPSFTCLRMELENILGQLSVLSASQDPLYINIERAEEPTAGGSLELPGRDQPYSGAGDGSGMGAVGGTPSDCRYILTPGGLAEQPGQAEHQPESPLNETQRLLLLQQGLLPHSSC
B7: Bone morphogenetic protein 7 (protein, UniProt P18075 293-431, looked up)
Bone morphogenetic protein 7: STGSKQRSQNRSKTPKNQEALRMANVAENSSSDQRQACKKHELYVSFRDLGWQDWIIAPEGYAAYYCEGECAFPLNSYMNATNHAIVQTLVHFINPETVPKPCCAPTQLNAISVLYFDDSSNVILKKYRNMVVRACGCH
B8: X-linked interleukin-1 receptor accessory protein-like 2 (protein, UniProt Q9NP60 17-686, looked up)
X-linked interleukin-1 …: TNLKMVSKRNSVDGCIDWSVDLKTYMALAGEPVRVKCALFYSYIRTNYSTAQSTGLRLMWYKNKGDLEEPIIFSEVRMSKEEDSIWFHSAEAQDSGFYTCVLRNSTYCMKVSMSLTVAENESGLCYNSRIRYLEKSEVTKRKEISCPDMDDFKKSDQEPDVVWYKECKPKMWRSIIIQKGNALLIQEVQEEDGGNYTCELKYEGKLVRRTTELKVTALLTDKPPKPLFPMENQPSVIDVQLGKPLNIPCKAFFGFSGESGPMIYWMKGEKFIEELAGHIREGEIRLLKEHLGEKEVELALIFDSVVEADLANYTCHVENRNGRKHASVLLRKKDLIYKIELAGGLGAIFLLLVLLVVIYKCYNIELMLFYRQHFGADETNDDNKEYDAYLSYTKVDQDTLDCDNPEEEQFALEVLPDVLEKHYGYKLFIPERDLIPSGTYMEDLTRYVEQSRRLIIVLTPDYILRRGWSIFELESRLHNMLVSGEIKVILIECTELKGKVNCQEVESLKRSIKLLSLIKWKGSKSSKLNSKFWKHLVYEMPIKKKEMLPRCHVLDSAEQGLFGELQPIPSIAMTSTSATLVSSQADLPEFHPSDSMQIRHCCRGYKHEIPATTLPVPSLGNHHTYCNLPLTLLNGQLPLNNTLKDTQEFHRNSSLLPLSSKELSFTSDIW
B9: Brevican core protein (protein, UniProt Q96GW7 23-911, looked up)
Brevican core protein: DVLEGDSSEDRAFRVRIAGDAPLQGVLGGALTIPCHVHYLRPPPSRRAVLGSPRVKWTFLSRGREAEVLVARGVRVKVNEAYRFRVALPAYPASLTDVSLALSELRPNDSGIYRCEVQHGIDDSSDAVEVKVKGVVFLYREGSARYAFSFSGAQEACARIGAHIATPEQLYAAYLGGYEQCDAGWLSDQTVRYPIQTPREACYGDMDGFPGVRNYGVVDPDDLYDVYCYAEDLNGELFLGDPPEKLTLEEARAYCQERGAEIATTGQLYAAWDGGLDHCSPGWLADGSVRYPIVTPSQRCGGGLPGVKTLFLFPNQTGFPNKHSRFNVYCFRDSAQPSAIPEASNPASNPASDGLEAIVTVTETLEELQLPQEATESESRGAIYSIPIMEDGGGGSSTPEDPAEAPRTLLEFETQSMVPPTGFSEEEGKALEEEEKYEDEEEKEEEEEEEEVEDEALWAWPSELSSPGPEASLPTEPAAQEESLSQAPARAVLQPGASPLPDGESEASRPPRVHGPPTETLPTPRERNLASPSPSTLVEAREVGEATGGPELSGVPRGESEETGSSEGAPSLLPATRAPEGTRELEAPSEDNSGRTAPAGTSVQAQPVLPTDSASRGGVAVVPASGDCVPSPCHNGGTCLEEEEGVRCLCLPGYGGDLCDVGLRFCNPGWDAFQGACYKHFSTRRSWEEAETQCRMYGAHLASISTPEEQDFINNRYREYQWIGLNDRTIEGDFLWSDGVPLLYENWNPGQPDSYFLSGENCVVMVWHDQGQWSDVPCNYHLSYTCKMGLVSCGPPPELPLAQVFGRPRLRYEVDTVLRYRCREGLAQRNLPLIRCQENGRWEAPQISCVPRRPARALHPEEDPEGRQGRLLGRWKALLIPPSSPMPGP
B10: Ubiquitin-conjugating enzyme E2 G2 (protein, UniProt P60604 2-165, looked up)
Ubiquitin-conjugating enzyme …: AGTALKRLMAEYKQLTLNPPEGIVAGPMNEENFFEWEALIMGPEDTCFEFGVFPAILSFPLDYPLSPPKMRFTCEMFHPNIYPDGRVCISILHAPGDDPMGYESSAERWSPVQSVEKILLSVVSMLAEPNDESGANVDASKMWRDDREQFYKIAKQIVQKSLGL

Tested on: proteins in oral lavage
Assay: Abundance of proteins in human oral lavage (SomaLogic), TABLE 1
Format: in vivo
Settings: for Means (Original Scale) High bleeder BL: high bleeders (gingivitis); for Means (Original Scale) High bleeder BL / Means (Original Scale) Low bleeder BL: baseline; for Means (Original Scale) Low bleeder BL: low bleeders (healthy); for Fold Change High bleeder W4 vs High bleeder BL / Fold Change High bleeder BL vs Low bleeder BL: oral lavage
[1] = abundance in oral lavage, high bleeders, week 4 of investigative products
[2] = high bleeders, week 4 of treatment vs baseline
[3] = high vs low bleeders at baseline
[4] = high bleeders vs low bleeders at baseline
[5] = week 4 of investigative products vs baseline, high bleeders

Row | Molecule | Means (Original Scale) High bleeder BL (abundance in oral lavage) | Means (Original Scale) High bleeder W4 [1] | Means (Original Scale) Low bleeder BL (abundance in oral lavage) | Fold Change High bleeder W4 vs High bleeder BL [2] | Fold Change High bleeder BL vs Low bleeder BL [3] | Fold Change High bleeder BL vs Low bleeder BL [4] | Fold Change High bleeder W4 vs High bleeder BL [5] | Means (Original Scale) High bleeder W4 (in vivo, po)
1 | B1 | 689 | 356 | 107 | 0.62 | 4.42 |  |  | 
2 | B2 | 194 | 123 | 63 | 0.70 | 2.78 |  |  | 
3 | B3 | 296 | 144 | 61 | 0.54 | 4.24 |  |  | 
4 | B4 | 220 | 116 | 55 |  |  | 3.17 | 0.63 | 
5 | B5 | 469 | 325 | 331 |  |  | 1.47 | 0.70 | 
6 | B6 | 95 |  | 50 | 0.74 | 1.82 |  |  | 67
7 | B7 | 66 | 50 | 32 |  |  | 1.90 | 0.80 | 
8 | B8 | 347 | 224 | 112 | 0.70 | 2.77 |  |  | 
9 | B9 | 3617 | 1786 | 364 |  |  | 9.85 | 0.51 | 
10 | B10 | 1599 | 890 | 355 | 0.62 | 4.04 |  |  | 
